In paper doi:10.1101/2021.09.16.460522:
No constants are given. Whether binding was seen depends on the method and setting. Binding seen in cells or lysates may run through a third protein. Here binding means that the protein was enriched with, or labelled near, the bait; the list need not be complete. No binding means not detected with the bait.

Protein sequences, listed by entry. Tags and fused reporters are not part of them. Residues count along the entry.
UniProt P47878, residues 28-292: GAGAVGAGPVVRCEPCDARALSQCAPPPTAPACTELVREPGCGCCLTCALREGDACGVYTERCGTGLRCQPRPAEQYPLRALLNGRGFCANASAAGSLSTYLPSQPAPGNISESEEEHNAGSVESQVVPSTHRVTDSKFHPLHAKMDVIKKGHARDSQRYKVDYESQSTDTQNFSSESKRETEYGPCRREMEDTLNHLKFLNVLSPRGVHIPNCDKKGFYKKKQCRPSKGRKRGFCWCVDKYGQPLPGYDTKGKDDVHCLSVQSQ
UniProt P08025, residues 49-118: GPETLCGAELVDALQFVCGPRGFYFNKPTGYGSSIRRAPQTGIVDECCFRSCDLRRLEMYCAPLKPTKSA

Molecular target: C-terminus FLAG epitope-tagged mouse IGFBP3 (mouse) (UniProt P47878)
Test: affinity purification with mass spectrometry

binding: no binding
Substance: IGF1 (from UniProt P08025 49-118) (ligand)
